This passage reports binding results from article PMC9338313.

Sequences of proteins named here, by UniProt entry; tags and fusion partners are left off. A change or cut given only in a name is not applied to a line headed by its entry.
UniProt Q00613: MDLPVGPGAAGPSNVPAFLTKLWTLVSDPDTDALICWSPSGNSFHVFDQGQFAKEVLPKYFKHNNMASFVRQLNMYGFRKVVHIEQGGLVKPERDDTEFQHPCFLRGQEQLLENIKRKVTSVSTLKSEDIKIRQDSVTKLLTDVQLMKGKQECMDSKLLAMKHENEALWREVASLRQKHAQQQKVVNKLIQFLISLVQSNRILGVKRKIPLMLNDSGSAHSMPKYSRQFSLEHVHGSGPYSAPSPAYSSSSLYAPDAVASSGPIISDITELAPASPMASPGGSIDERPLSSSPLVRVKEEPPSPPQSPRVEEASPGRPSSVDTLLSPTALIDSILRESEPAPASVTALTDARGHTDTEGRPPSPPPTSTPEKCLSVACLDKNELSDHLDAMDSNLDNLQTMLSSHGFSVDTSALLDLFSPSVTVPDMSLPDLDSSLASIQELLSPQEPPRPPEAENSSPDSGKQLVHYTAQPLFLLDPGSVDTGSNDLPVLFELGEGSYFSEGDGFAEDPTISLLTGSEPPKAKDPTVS
UniProt P53350: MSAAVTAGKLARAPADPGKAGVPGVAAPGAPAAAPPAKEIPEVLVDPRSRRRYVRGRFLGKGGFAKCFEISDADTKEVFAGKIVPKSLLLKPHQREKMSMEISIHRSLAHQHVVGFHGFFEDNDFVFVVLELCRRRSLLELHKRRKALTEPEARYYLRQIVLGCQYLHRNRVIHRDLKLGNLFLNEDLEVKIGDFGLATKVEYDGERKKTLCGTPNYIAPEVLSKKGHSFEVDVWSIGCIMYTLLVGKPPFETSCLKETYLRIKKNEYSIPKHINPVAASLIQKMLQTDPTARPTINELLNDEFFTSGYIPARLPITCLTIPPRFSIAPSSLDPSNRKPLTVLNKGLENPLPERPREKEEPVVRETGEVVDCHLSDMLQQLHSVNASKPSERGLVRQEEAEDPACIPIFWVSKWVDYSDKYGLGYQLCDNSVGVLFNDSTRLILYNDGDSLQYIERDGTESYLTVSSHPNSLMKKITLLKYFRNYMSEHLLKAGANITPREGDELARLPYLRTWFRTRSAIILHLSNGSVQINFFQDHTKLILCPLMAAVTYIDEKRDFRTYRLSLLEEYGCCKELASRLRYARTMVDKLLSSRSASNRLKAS
UniProt Q9Y4A5: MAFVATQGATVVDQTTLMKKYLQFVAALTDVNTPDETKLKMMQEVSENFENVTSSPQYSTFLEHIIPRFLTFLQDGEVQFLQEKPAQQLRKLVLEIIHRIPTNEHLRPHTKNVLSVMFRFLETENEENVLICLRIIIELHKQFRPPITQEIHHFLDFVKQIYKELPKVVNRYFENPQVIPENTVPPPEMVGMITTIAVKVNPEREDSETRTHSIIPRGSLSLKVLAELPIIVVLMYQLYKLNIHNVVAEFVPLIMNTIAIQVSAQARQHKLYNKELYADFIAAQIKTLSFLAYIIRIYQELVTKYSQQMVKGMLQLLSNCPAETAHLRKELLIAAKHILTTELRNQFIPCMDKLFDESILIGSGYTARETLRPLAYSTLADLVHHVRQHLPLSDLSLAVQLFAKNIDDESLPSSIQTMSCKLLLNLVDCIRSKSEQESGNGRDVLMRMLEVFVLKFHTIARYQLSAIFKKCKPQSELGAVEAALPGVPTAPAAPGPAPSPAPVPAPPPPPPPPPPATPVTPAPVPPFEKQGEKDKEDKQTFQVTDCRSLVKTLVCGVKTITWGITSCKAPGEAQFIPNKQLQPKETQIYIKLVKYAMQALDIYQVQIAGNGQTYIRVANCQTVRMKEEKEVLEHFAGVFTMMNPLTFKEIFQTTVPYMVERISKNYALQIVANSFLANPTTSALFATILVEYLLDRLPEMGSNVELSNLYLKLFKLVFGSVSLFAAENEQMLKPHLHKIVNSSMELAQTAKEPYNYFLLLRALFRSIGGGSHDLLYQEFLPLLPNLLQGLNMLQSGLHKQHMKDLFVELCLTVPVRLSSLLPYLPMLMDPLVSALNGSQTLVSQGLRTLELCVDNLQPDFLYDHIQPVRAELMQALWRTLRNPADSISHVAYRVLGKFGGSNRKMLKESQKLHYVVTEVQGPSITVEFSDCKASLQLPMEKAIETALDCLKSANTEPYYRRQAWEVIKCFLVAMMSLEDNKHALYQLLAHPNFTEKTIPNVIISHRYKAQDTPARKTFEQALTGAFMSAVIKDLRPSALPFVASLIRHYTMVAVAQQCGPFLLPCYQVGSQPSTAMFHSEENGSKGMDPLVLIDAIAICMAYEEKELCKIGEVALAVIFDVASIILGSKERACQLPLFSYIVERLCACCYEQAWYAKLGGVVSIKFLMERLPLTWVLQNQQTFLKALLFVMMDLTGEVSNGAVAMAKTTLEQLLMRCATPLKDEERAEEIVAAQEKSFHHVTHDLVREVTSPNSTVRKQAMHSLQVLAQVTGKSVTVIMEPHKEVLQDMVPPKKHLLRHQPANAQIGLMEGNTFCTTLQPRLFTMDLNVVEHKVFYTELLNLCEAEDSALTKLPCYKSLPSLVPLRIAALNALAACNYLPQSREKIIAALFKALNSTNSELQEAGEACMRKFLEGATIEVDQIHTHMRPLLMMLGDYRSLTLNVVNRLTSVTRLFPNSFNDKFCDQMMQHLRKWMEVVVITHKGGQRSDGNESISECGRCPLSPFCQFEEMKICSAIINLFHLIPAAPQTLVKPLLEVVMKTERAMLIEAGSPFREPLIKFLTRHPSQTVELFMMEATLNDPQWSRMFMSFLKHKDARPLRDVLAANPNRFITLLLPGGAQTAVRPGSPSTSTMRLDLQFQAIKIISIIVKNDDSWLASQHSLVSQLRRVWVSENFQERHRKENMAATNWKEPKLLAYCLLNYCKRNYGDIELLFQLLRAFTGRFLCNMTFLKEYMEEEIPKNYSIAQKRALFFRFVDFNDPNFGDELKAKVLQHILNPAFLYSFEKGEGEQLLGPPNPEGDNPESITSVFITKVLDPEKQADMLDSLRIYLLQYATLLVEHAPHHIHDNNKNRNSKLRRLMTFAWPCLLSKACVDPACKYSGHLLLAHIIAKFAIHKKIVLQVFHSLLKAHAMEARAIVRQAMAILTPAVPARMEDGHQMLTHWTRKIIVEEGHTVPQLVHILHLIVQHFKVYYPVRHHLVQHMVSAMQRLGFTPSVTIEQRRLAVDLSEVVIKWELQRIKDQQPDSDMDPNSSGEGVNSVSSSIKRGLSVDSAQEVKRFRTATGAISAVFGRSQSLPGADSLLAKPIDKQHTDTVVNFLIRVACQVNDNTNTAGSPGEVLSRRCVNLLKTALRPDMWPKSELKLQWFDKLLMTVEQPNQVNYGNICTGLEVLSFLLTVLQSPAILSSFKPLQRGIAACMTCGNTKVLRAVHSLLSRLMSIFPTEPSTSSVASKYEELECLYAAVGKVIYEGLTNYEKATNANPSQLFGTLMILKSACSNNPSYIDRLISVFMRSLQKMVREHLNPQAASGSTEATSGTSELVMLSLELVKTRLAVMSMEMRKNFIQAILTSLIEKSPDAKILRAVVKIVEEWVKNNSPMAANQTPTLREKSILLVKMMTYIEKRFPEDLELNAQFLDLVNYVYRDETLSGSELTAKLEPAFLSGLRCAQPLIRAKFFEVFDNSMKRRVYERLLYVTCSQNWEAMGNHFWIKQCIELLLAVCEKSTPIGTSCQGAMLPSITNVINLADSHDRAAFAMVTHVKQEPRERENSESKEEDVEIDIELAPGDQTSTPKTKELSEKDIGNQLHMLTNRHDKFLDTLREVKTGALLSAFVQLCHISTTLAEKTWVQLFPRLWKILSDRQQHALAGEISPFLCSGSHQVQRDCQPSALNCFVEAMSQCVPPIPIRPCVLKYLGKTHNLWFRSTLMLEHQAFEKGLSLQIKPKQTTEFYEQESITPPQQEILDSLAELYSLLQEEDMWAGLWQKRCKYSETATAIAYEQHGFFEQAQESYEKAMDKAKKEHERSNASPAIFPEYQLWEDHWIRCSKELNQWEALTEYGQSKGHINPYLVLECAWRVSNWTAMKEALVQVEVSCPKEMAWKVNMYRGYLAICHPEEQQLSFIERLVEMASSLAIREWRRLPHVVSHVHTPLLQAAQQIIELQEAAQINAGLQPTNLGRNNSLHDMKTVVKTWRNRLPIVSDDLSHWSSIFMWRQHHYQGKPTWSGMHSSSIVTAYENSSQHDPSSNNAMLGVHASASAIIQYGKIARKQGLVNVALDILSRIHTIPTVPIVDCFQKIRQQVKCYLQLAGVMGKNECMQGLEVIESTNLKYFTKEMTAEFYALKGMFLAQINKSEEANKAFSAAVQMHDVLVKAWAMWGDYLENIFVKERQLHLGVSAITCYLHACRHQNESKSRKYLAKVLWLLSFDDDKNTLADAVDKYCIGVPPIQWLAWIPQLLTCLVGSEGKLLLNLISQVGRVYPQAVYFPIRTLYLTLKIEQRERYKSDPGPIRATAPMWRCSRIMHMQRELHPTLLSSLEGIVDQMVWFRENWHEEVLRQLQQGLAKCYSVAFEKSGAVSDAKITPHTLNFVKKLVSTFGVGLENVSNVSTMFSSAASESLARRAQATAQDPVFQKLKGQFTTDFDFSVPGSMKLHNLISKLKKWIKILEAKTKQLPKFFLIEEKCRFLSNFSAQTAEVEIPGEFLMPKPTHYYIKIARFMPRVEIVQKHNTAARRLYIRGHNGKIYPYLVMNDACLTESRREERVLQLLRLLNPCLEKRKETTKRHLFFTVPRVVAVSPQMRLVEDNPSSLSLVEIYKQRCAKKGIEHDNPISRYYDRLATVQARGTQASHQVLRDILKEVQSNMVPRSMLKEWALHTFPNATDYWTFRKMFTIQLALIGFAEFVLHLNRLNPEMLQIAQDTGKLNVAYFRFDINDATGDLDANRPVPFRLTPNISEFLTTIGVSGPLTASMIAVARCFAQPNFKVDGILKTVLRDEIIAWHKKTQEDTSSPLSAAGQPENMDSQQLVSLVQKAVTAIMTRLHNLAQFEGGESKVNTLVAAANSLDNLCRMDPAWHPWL
UniProt Q92993: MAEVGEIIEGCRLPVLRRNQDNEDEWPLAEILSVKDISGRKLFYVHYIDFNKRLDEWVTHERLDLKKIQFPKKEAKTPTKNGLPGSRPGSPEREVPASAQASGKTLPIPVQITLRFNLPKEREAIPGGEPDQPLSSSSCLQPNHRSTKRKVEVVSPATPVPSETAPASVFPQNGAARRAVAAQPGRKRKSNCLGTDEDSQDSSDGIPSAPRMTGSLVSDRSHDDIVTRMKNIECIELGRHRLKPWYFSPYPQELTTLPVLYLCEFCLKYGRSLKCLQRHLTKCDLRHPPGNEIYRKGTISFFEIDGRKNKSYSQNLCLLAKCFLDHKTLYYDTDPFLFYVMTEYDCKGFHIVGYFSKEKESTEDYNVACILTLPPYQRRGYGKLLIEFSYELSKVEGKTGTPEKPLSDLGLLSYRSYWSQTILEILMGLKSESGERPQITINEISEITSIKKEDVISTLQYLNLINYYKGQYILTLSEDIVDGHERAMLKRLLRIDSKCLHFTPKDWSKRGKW

In assay [1] the target is heat shock transcription factor 1 (HSF1) (human (endogenous in HeLa)) (UniProt Q00613). As to the kind of experiment: co-IP; nuclear (and cytoplasmic) extracts of heat-shocked HeLa cells, 150 mM NaCl, 1% NP-40; anti-HSF1 (anti-mHSF1n) or non-immune serum, protein A-Sepharose, immunoblot; in some panels after knock-down of HSF1, TRRAP, TIP60 or p300. For orientation: Immunoblotting shows a protein as a band on a membrane.

The target in a further assay is HA-hPLK1-K82R (human) (UniProt P53350). As to the kind of experiment: co-IP; nuclear extracts of heat-shocked cells in which endogenous PLK1 was replaced with GFP, HA-hPLK1 or its kinase-dead mutant; precipitated with anti-PLK1, immunoblot.
The target in assay [2] is heat shock transcription factor 1 (HSF1) (human (endogenous in HeLa)) (UniProt Q00613). As to the kind of experiment: co-IP; Supplementary Fig. 2g: hTRRAP-3×FLAG or hTRRAPΔ1801-1833-3×FLAG expressed in cells; legend not shown, which partner was precipitated is not told.
The target is the same in assay [3]. As to the kind of experiment: co-IP; nuclear (and cytoplasmic) extracts of heat-shocked HeLa cells, 150 mM NaCl, 1% NP-40; anti-HSF1 (anti-mHSF1n) or non-immune serum, protein A-Sepharose, immunoblot; in some panels after knock-down of HSF1, TRRAP, TIP60 or p300. This is another data set of the same source.

Results are given in words; binding and its absence hold for the method and conditions named. Binding seen in cells or lysates may run through a third protein. Some results given as binding are weak or reduced against the parent protein; the word gives no strength.

For “PLK1 (from UniProt P53350 1-603) (enzyme)”, the binding result in assay [1] was “binds”. For the molecule TRRAP (from UniProt Q9Y4A5 1-3859), the binding entry in assay [1] was “binds”. Regarding “heat shock transcription factor 1 (HSF1) (from UniProt Q00613 1-529)”, in the assay with HA-hPLK1-K82R (human), the binding result is on record as “binds”. For the molecule p400 (from UniProt Q96L91 1-3159), in assay [1], the binding result is “binds”. Same read-out and setting: the value for “TIP60 (from UniProt Q92993 1-513) (enzyme)” was “binds”. With “hTRRAP (isoform 2, accession number NP_003487) tagged with 3×FLAG peptide at the C-terminus (from UniProt Q9Y4A5-2 1-3830)”, in assay [2], the binding entry was “binds”.

B1: tripartite motif (TRIM) 33 (protein, UniProt Q9UPN9 1-1127)
chain: MAENKGGGEAESGGGGSGSAPVTAGAAGPAAQEAEPPLTAVLVEEEEEEGGRAGAEGGAAGPDDGGVAAASSGSAQAASSPAASVGTGVAGGAVSTPAPAPASAPAPGPSAGPPPGPPASLLDTCAVCQQSLQSRREAEPKLLPCLHSFCLRCLPEPERQLSVPIPGGSNGDIQQVGVIRCPVCRQECRQIDLVDNYFVKDTSEAPSSSDEKSEQVCTSCEDNASAVGFCVECGEWLCKTCIEAHQRVKFTKDHLIRKKEDVSESVGASGQRPVFCPVHKQEQLKLFCETCDRLTCRDCQLLEHKEHRYQFLEEAFQNQKGAIENLLAKLLEKKNYVHFAATQVQNRIKEVNETNKRVEQEIKVAIFTLINEINKKGKSLLQQLENVTKERQMKLLQQQNDITGLSRQVKHVMNFTNWAIASGSSTALLYSKRLITFQLRHILKARCDPVPAANGAIRFHCDPTFWAKNVVNLGNLVIESKPAPGYTPNVVVGQVPPGTNHISKTPGQINLAQLRLQHMQQQVYAQKHQQLQQMRMQQPPAPVPTTTTTTQQHPRQAAPQMLQQQPPRLISVQTMQRGNMNCGAFQAHQMRLAQNAARIPGIPRHSGPQYSMMQPHLQRQHSNPGHAGPFPVVSVHNTTINPTSPTTATMANANRGPTSPSVTAIELIPSVTNPENLPSLPDIPPIQLEDAGSSSLDNLLSRYISGSHLPPQPTSTMNPSPGPSALSPGSSGLSNSHTPVRPPSTSSTGSRGSCGSSGRTAEKTSLSFKSDQVKVKQEPGTEDEICSFSGGVKQEKTEDGRRSACMLSSPESSLTPPLSTNLHLESELDALASLENHVKIEPADMNESCKQSGLSSLVNGKSPIRSLMHRSARIGGDGNNKDDDPNEDWCAVCQNGGDLLCCEKCPKVFHLTCHVPTLLSFPSGDWICTFCRDIGKPEVEYDCDNLQHSKKGKTAQGLSPVDQRKCERLLLYLYCHELSIEFQEPVPASIPNYYKIIKKPMDLSTVKKKLQKKHSQHYQIPDDFVADVRLIFKNCERFNEMMKVVQVYADTQEINLKADSEVAQAGKAVALYFEDKLTEIYSDRTFAPLPEFEQEEDDGEVTEDSDEDFIQPRRKRLKSDERPVHIK
For B1, the binding result in assay [3] is “binds”.

B2: TRIM24 (protein, UniProt O15164 1-1050)
chain: MEVAVEKAVAAAAAASAAASGGPSAAPSGENEAESRQGPDSERGGEAARLNLLDTCAVCHQNIQSRAPKLLPCLHSFCQRCLPAPQRYLMLPAPMLGSAETPPPVPAPGSPVSGSSPFATQVGVIRCPVCSQECAERHIIDNFFVKDTTEVPSSTVEKSNQVCTSCEDNAEANGFCVECVEWLCKTCIRAHQRVKFTKDHTVRQKEEVSPEAVGVTSQRPVFCPFHKKEQLKLYCETCDKLTCRDCQLLEHKEHRYQFIEEAFQNQKVIIDTLITKLMEKTKYIKFTGNQIQNRIIEVNQNQKQVEQDIKVAIFTLMVEINKKGKALLHQLESLAKDHRMKLMQQQQEVAGLSKQLEHVMHFSKWAVSSGSSTALLYSKRLITYRLRHLLRARCDASPVTNNTIQFHCDPSFWAQNIINLGSLVIEDKESQPQMPKQNPVVEQNSQPPSGLSSNQLSKFPTQISLAQLRLQHMQQQVMAQRQQVQRRPAPVGLPNPRMQGPIQQPSISHQQPPPRLINFQNHSPKPNGPVLPPHPQQLRYPPNQNIPRQAIKPNPLQMAFLAQQAIKQWQISSGQGTPSTTNSTSSTPSSPTITSAAGYDGKAFGSPMIDLSSPVGGSYNLPSLPDIDCSSTIMLDNIVRKDTNIDHGQPRPPSNRTVQSPNSSVPSPGLAGPVTMTSVHPPIRSPSASSVGSRGSSGSSSKPAGADSTHKVPVVMLEPIRIKQENSGPPENYDFPVVIVKQESDEESRPQNANYPRSILTSLLLNSSQSSTSEETVLRSDAPDSTGDQPGLHQDNSSNGKSEWLDPSQKSPLHVGETRKEDDPNEDWCAVCQNGGELLCCEKCPKVFHLSCHVPTLTNFPSGEWICTFCRDLSKPEVEYDCDAPSHNSEKKKTEGLVKLTPIDKRKCERLLLFLYCHEMSLAFQDPVPLTVPDYYKIIKNPMDLSTIKKRLQEDYSMYSKPEDFVADFRLIFQNCAEFNEPDSEVANAGIKLENYFEELLKNLYPEKRFPKPEFRNESEDNKFSDDSDDDFVQPRKKRLKSIEERQLLK
For the molecule B2, the binding entry in assay [3] is on record as “binds”.
